Laboratory results published in article PMC11910558.
Results are given in words; binding and its absence hold for the method and conditions named. In cells and extracts the contact can be indirect. Some results given as binding are weak or reduced against the parent protein; the word gives no strength.

T1: Fos proto-oncogene, AP-1 transcription factor subunit (FOS) (human (endogenous in SK-N-SH and SY5Y)), P01100
T1 chain: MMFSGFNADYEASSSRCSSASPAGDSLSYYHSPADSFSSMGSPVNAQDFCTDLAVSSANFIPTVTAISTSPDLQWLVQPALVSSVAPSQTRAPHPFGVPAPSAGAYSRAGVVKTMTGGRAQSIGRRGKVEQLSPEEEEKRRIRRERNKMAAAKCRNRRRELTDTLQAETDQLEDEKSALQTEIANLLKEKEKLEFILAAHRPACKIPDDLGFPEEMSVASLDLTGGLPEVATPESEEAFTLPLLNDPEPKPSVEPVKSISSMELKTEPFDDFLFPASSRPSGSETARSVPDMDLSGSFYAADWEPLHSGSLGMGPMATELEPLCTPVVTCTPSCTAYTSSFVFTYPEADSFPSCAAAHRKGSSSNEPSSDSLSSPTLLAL


Columns and labels:
[1] = molecular target: Fos proto-oncogene, AP-1 transcription factor subunit (FOS) (human (endogenous in SK-N-SH and SY5Y)) (UniProt P01100); test: co-IP; 2 mg precleared whole cell lysate of NB cells (RIPA buffer with protease inhibitors) incubated with 2 ug anti-FOS or IgG control for 2 h, protein G beads; western blot
[2] = molecular target: T1, Fos proto-oncogene, AP-1 transcription …; test: as above; settings: remark: other sources report otherwise

| binding [1] | binding [2] | Molecule |
| --- | --- | --- |
| no binding |  | p53 (from UniProt P04637 1-393) |
|  | binds | JUND, P17535 1-347 (protein) METPFYGDEALSGLGGGASGSGGSFASPGRLFPGAPPTAAAGSMMKKDALTLSLSEQVAAALKPAAAPPPTPLRADGAPSAAPPDGLLASPDLGLLKLASPELERLIIQSNGLVTTTPTSSQFLYPKVAASEEQEFAEGFVKALEDLHKQNQLGAGAAAAAAAAAAGGPSGTATGSAPPGELAPAAAAPEAPVYANLSSYAGGAGGAGGAATVAFAAEPVPFPPPPPPGALGPPRLAALKDEPQTVPDVPSFGESPPLSPIDMDTQERIKAERKRLRNRIAASKCRKRKLERISRLEEKVKTLKSQNTELASTASLLREQVAQLKQKVLSHVNSGCQLLPQHQVPAY |
